Results are given in words; binding and its absence hold for the method and conditions named. Some binding calls cover weakened binding; strength is not graded here.

Amino acid sequences for entries named in this document (tags omitted). Residues count along the entry.
recombinant human ROR1 extracellular domain protein (Q01973, residues 30-406): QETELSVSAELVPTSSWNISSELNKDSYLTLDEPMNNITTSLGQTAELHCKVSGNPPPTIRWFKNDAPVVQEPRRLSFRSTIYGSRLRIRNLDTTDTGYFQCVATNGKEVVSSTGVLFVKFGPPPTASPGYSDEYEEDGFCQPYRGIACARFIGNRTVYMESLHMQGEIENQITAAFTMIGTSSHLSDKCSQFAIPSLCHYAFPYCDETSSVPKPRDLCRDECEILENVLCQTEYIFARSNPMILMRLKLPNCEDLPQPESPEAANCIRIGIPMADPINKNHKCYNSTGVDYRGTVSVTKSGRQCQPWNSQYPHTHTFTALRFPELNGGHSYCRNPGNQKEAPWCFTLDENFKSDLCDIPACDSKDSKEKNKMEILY
human ROR1 'Ig-Frizzled domain' (Q01973, residues 30-305): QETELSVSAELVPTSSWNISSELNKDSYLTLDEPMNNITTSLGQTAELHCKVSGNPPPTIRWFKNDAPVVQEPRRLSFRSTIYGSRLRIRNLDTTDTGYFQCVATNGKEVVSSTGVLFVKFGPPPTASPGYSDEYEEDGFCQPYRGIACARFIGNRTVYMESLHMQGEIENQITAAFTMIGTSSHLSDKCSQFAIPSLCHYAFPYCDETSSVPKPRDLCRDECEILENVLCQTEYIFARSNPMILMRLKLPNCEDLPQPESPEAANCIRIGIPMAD
human ROR1 'Frizzled-Kringle domain' (Q01973, residues 165-406): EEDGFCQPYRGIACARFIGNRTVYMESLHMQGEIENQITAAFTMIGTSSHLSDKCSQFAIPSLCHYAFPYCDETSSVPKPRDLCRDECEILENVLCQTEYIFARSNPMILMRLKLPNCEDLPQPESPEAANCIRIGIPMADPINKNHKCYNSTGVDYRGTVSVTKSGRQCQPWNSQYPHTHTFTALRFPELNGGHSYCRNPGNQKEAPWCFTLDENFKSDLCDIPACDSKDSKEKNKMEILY
UniProt Q9Z139, residues 30-403: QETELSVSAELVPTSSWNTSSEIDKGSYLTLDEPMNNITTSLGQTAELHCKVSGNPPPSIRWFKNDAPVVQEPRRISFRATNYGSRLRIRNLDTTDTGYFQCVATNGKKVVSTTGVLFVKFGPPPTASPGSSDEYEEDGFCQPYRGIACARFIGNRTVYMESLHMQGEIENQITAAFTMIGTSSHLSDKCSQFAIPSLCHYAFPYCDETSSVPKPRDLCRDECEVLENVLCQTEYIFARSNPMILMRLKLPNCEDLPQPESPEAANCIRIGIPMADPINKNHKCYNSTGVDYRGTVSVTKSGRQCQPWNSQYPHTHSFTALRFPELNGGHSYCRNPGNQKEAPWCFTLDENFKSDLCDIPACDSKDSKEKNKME

Sequences and labels used below:
B1: 323D10 humanized antibody (antibody, human IgG1, kappa, V domains shown)
VH: EVQLVESGGGLVQPGGSLRLSCTASGFSLSRNAMNWVRQAPGKGLEYIGYISTSGTTFYANSVKGRFTISKDNTKNTVDLQMNSLRAEDTAVYYCARDYNYAMDIWGQGTLVTVSS
VL: AIDLTQSPSTLSASVGGTITINCQASESISSWLAWYQQKPGKAPKLLIYETSKLASGVPSRFSGSGSGTEFTLTISSLQPDDFATYYCQSYYRINNIGYDNAFGGGTKVEIKR
notes: Human gamma-1 and human kappa constant domains
B2: 324C6 humanized antibody (antibody, human IgG1, kappa, V domains shown)
VH: QSLVESGGGLVQPGGSLRLSCTASGFSLSRYYMTWVRQAPGKGLEWIGTIYTSGSTWYASWTKGRFTISKDNTKNTVDLQMNSLRAEDTAVYYCARSYYGGDKTGLGIWGQGTLVTVSS
VL: DIQMTQSPSTLSASVGDRVTITCQASQSIDSWLSWYQQKPGKAPKLLIYQASTLASGVPSRFSGSGSGTEFTLTISSLQPDDFATYYCQSAYGVSGTSSYLYTFGGGTKVEIKR
notes: as for B1
B3: 324E2 humanized antibody (antibody, human IgG1, kappa, V domains shown)
VH: QSVEESGGGLVQPGGSLRLSCTASGFSLSNNAITWVRQAPGKGLEYIGIISSSGTTYYASSAKGRFTISKDTSKNTVDLQMNSLRAEDTAVYYCAGAFSVWGQGTLVTVSS
VL: DIQMTQSPSSLSASVGDRVTITCQSSQSVNNNDLAWYQQKPGKAPKRLIYWASKLASGVPSRFSGSGSGTEFTLTISNLQPEDFATYYCAGGYSGNIYGFGGGTKVEIKR
notes: as for B1
B4: 226E12 humanized antibody (antibody, human IgG1, kappa, V domains shown)
VH: EVQLLESGGGLVQPGGSLRLSCAASGFSLSNYYMSWVRQAPGKGLEWIGAINADSDNTWYPSWVKGRFTISRDNSKNTLYLQMNSLRAEDTAVYYCARSVSNNFAEYNIWGQGTLVTVSS
VL: DIQMTQSPSSLSASVGDRVTITCQASQRIYSYLAWYQQKPGKVPKLLIYRASTLASGVPSRFSGSGSGTDFTLTISSLQPEDVATYYCQQGASMVDVENMFGGGTKVEIKR
notes: as for B1
B5: 330F11 humanized antibody (antibody, human IgG1, kappa, V domains shown)
VH: EVQLVESGGGLVQPGGSLRLSCAASGFSLNNYWMSWVRQAPGKGLEWIGTISSGAYTWFATWATGRFTISRDNSKNTLYLQMNSLRAEDTAVYYCARYSSTTDWTYFNIWGQGTLVTVSS
VL: DIQMTQSPSTLSASVGDRVTITCQASQSINNYLAWYQQKPGKAPKLLIYRASTLESGVPSRFSGSGSGTEFTLTISSLQPDDFATYYCQSYNGVGRTAFGGGTKVEIKR
notes: as for B1
B6: 323H7 humanized antibody (antibody, human IgG1, kappa, V domains shown)
VH: EVQLLESGGGLVQPGGSLRLSCAASGFTISRYHMTWVRQAPGKGLEWIGHIYVNNDDTDYASSAKGRFTISRDNSKNTLYLQMNSLRAEDTATYFCARLDVGGGGAYIGDIWGQGTLVTVSS
VL: DIQMTQSPSSLSASVGDRVTITCQSSQSVYNNNDLAWYQQKPGKVPKLLIYYASTLASGVPSRFSGSGSGTDFTLTISSLQPEDVATYYCAGGYDTDGLDTFAFGGGTKVEIKR
notes: as for B1
B7: 338H4 humanized antibody (antibody, human IgG1, kappa, V domains shown)
VH: EVQLVESGGGLVQPGGSLRLSCTASGFSLSSYAMSWVRQAPGRGLEWIGIIYASGSTYYASSAKGRFTISKDNTKNTVDLQMNSLRAEDTAVYYCARIYDGMDLWGQGTLVTVSS
VL: DIQMTQSPSSLSASVGDRVTINCQASQNIYSYLSWYQQKPGKVPKRLIYLASTLASGVPSRFSGSGSGTDYTLTISSLQPEDVATYYCQSNYNGNYGFGGGTKVEIKR
notes: as for B1
B8: 330F11 chimeric rabbit/human IgG antibody (antibody, V domains shown)
VH: QSVEESGGRLVTPGTPLTLTCTVSGFSLNNYWMSWVRQAPGEGLEWIGTISSGAYTWFATWATGRFTISKTSTTVDLSITSPTTEDTATYFCARYSSTTDWTYFNIWGPGTLVTVSS
VL: DVVMTQTPASVEAAVGGTVTIKCQASQSINNYLAWYQQKPGQPPKLLIYRASTLESGVPSRFKGSGSGTQFTLTISDLECADAATYYCQSYNGVGRTAFGGGTEVEFKR
notes: Rabbit variable regions on human gamma-1 and human kappa constant domains
B9: 338H4 chimeric rabbit/human IgG antibody (antibody, V domains shown)
VH: QSVEESGGRLVTPGTPLTLTCTVSGFSLSSYAMSWVRQAPGRGLEWIGIIYASGSTYYASWAKGRFTISKTSTTVDLKITSPTTEDTATYFCARIYDGMDLWGPGTLVTVSS
VL: DIVMTQTPASVSAAVGGTVTINCQASQNIYSYLSWYQQKPGQPPKRLIYLASTLASGVPSRFKSSGSGTEYTLTISDLECDDAATYYCQSNYNGNYGFGGGTEVEVKR
notes: as for B8
B10: 324E2 chimeric rabbit/human IgG antibody (antibody, V domains shown)
VH: QSVEESGGRLVTPGTPLTLTCTVSGFSLSNNAITWVRQAPGKGLEYIGIISSSGTTYYASWAKGRFTISKTSSTTVDLKMTSLTTEDTATYFCAGAFSVWGPGTLVTVSS
VL: AQVLTQTPSSVSAAVGGTVTINCQSSQSVNNNDLAWFQQKPGQPPKRLIYWASKLASGVPSRFKGSGSGTQFILTISDLECDDAATYYCAGGYSGNIYGFGGGTEVEVKR
notes: as for B8
B11: 323H7 chimeric rabbit/human IgG antibody (antibody, V domains shown)
VH: QEQLKESGGGLVTPGGTLTLTCTASGFTISRYHMTWVRQAPGKGLEWIGHIYVNNDDTDYASWAKGRFTISKTSTTVDLKITSPTTEDTATYFCARLDVGGGGAYIGDIWGQGTLVTVSS
VL: QAVVTQTPSSVSAAVGGTVTISCQSSQSVYNNNDLAWYQQKPGQPPKLLIYYASTLASGVSSRFKGSGSGTQFTLAISDLECDDSATYYCAGGYDTDGLDTFAFGGGTEVEVKR
notes: as for B8
B12: 324C7 chimeric rabbit/human IgG antibody (antibody, V domains shown)
VH: QSVEESGGRLVTPGTPLTLTCTVSGFSLSGAGVSWVRQAPGKGLEWIGYIDSGATTYYASWAKGRFTISKASTTVDLKIASPTTEDTATYFCARGYYGMDPWGQGTLVTVSS
VL: DIVMTQTPASVEVAVGGTVTIKCQASQNIGSDLAWYQQKPGQPPKLLIYTTSNLASGVPSRFKGSGSGTGFTLTISDLECADAASYCCQGGYFSGRNIYGNAFGGGTEVVVKR
notes: as for B8
B13: 323D10 chimeric rabbit/human IgG antibody (antibody, V domains shown)
VH: QSVEESGGRLVTPGTPLTLTCTVSGFSLSRNAMNWVRQAPGKGLEYIGYISTSGTTFYANWVKGRFTISKTSTTVDLKMTSLTTEDTATYFCARDYNYAMDIWGQGTLVTVSS
VL: AIDLTQTPASVEAAVGGTITINCQASESISSWLAWYQQKPGQRPKLLIYETSKLASGVPPRFSGSGSGTQFTLTISGVQCDDAATYYCQSYYRINNIGYDNAFGGGTEVEFKR
notes: as for B8

In the first assay the target is recombinant human ROR1 extracellular domain protein (human) (UniProt Q01973). Briefly: BLI (Octet). A general note: BLI is a label-free optical method that tracks binding on a fibre tip over time.
B1: the binding result was “binds”.

As for B2, the binding entry was “binds”. The same measure, in the same setting: the entry for B3 is “binds”; for B4 it is “binds”; for B5 it is “binds”. As for B6, the binding result was “binds”. Same read-out and setting: the entry for B7 is “binds”.

In the next assay the target is T1, human ROR1 'Frizzled-Kringle domain' (human, UniProt Q01973).
T1 construct: used plain or biotinylated
Briefly: Octet.
With B8, the binding entry is listed as “binds”.

As for B9, the binding entry is “binds”.

The next assay has as its target T2, human ROR1 'Ig-Frizzled domain' (human, UniProt Q01973).
T2 construct: used plain or biotinylated
As to the kind of experiment: Octet.
Take B10: the binding result was “binds”. The same measure, in the same setting: with B11 the entry was “binds”; with B12, “binds”.

For B13, the binding entry is “binds”. Same read-out and setting: with B9 the entry was “binds”.

A further assay deals with mouse ROR1 (serum titer ELISA antigen) (mouse, UniProt Q9Z139 30-403, limits assumed). As to the kind of experiment: Octet.
For B10, the binding result is reported as “binds”. Consider B13, for which the binding result is “binds”. Take B8: the binding entry is “binds”.

Regarding B9, the binding result is on record as “binds”.
